In PubChem BioAssay AID504467 (National Center for Advancing Translational Sciences (NCATS), 2011):
Screen size: about 330,000 compounds; about 7,700 (2.3%) were called active. The inconclusive results got no clear call from the source; some entries with a clear call stand among them for comparison. Calls follow the shape of the dose curve; as a rule, active = well fitted inhibition curve with a large enough effect; inconclusive = small, poorly fitted or top-dose-only effect, or effect the other way; inactive = flat fitted curve, though single readings scatter. Potencies beside an inconclusive call are fits to weak or partial responses and may not hold up.

experiment: qHTS screen for small molecules that inhibit ELG1-dependent DNA repair in human embryonic kidney (HEK293T) cells expressing luciferase-tagged ELG1; conditions: HEK293T ELG1-luciferase reporter, luminescence, 16 h, DNA damage induced by 5-fluorouridine; series mostly up to 46.1 µM; also: nearly all actives have a fitted effect of over 55% in size
In short: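 Luminescence from the luciferase reporter, measured 30 min after ONE-Glo reagent at room temperature, was the read-out. Beforehand, 2,000 cells per well were exposed for 16 hr at 37 °C to 5-fluorouridine together with compound or vehicle.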
Potency is read from the fitted curve at half-maximal effect.

Structure (SMILES) | Potency
O=C(c1cc(-c2ccc(Cl)c(Cl)c2)on1)N1CCCC1 | inconclusive: 3.66 µM [activator, full curve, poor fit]
CC12CN3CCN(CC(C3)/C1=N/NC(=O)Nc1ccccc1)C2 | inconclusive: 23.1 µM [activator, single point]
O=[N+]([O-])/C=C/c1cn(Cc2ccccc2)c2ccccc12 | inconclusive: 29.1 µM [inhibitor, single point]
CN(CC(=O)Nc1ccc(Cl)c(C(F)(F)F)c1)C(=O)CCNC(=O)c1ccco1 | inactive
Cc1ccc(C[n+]2cccc(-c3ccccc3)c2)c(C)c1 | inactive
CC(C)C/C=C1\CCc2c([nH]c3ccccc23)C1=O | inconclusive: 23.1 µM [activator, partial curve]
Cc1cccc(NC(=O)CSc2n[nH]c(-c3ccncc3)n2)c1 | inactive
N#Cc1c(NC(=O)c2ccc(Cn3cc(Br)cn3)o2)sc2c1CCCCCC2 | inactive
O=C1c2ccccc2C(=O)N1CCN1CCCCC1 | inconclusive: 0.731 µM [activator, partial curve, poor fit]
CNC(=O)c1c(NC(=O)c2ccc(S(=O)(=O)N3CCCCC3)cc2)sc2c1CCN(C(C)C)C2 | inconclusive: 5.17 µM [inhibitor, full curve]
CC(=O)NC1C(OC(=O)/C=C/c2ccccc2)OC(COC(C)=O)C(OC(C)=O)C1OC(C)=O (stereo not given) | inconclusive: 29.1 µM [activator, partial curve, poor fit]
CSc1nc2ccccc2n1CC(=O)Nc1ccc(C)c(C)c1 | inactive
CC1(C)Cc2nc3nc(SCC(=O)NCc4ccccc4)n(-c4ccccc4)c(=O)c3cc2CO1 | inconclusive: 29.1 µM [inhibitor, single point]
O=C(NCCC1=CCCCC1)c1ccc(F)c(S(=O)(=O)N2CCOCC2)c1 | inconclusive: 29.1 µM [inhibitor, partial curve, poor fit]
CCOC(=O)CN(C(=O)CSc1nnc2c(n1)[nH]c1ccccc12)c1ccccc1 | inactive
COC(=O)c1ccccc1NC(=O)C1CCCN(S(=O)(=O)c2ccccc2)C1 (stereo not given) | inconclusive: 29.1 µM [inhibitor, single point]
CC(C)Cn1nc(C(=O)Nc2cccc(S(=O)(=O)N3CCCC3)c2)c2ccccc2c1=O | active: 20.6 µM
C/C=C/C1=CC(=O)C[C@H](c2ccc(OC)c(OC)c2)C1 | inactive
CC(C)NC(=O)c1ccccc1NC(=O)CS(=O)(=O)Cc1ccccc1 | inconclusive: 29.1 µM [activator, single point]
CCCCn1c(SCC(=O)NC2CCS(=O)(=O)C2)nc2cc(S(N)(=O)=O)ccc21 (stereo not given) | inactive
CN(C(=O)CSc1nc2ccccc2c(=O)n1C)C1CCS(=O)(=O)C1 (stereo not given) | inactive
Cc1ccc(-n2nnc3c(SCC(=O)NCC4CCCO4)ncnc32)cc1 (stereo not given) | inconclusive: 11.6 µM [activator, partial curve, poor fit]
CCOC(=O)c1cccc(S(=O)(=O)N(CCO)Cc2cc3cc(OC)ccc3[nH]c2=O)c1 | inconclusive: 29.1 µM [inhibitor, single point]
Cc1ccc(C)c(N2CCN(C(=S)Nc3ccc4nc(N5CCN(C)CC5)cc(C)c4c3)CC2)c1 | inconclusive: 20.6 µM [inhibitor, partial curve]

Look-ups from the list:
In Potency, CN(C(=O)CSc1nc2ccccc2c(=O)n1C)C1CCS(=O)(=O)C1 (stereo not given) reads inactive
In Potency, CCOC(=O)c1cccc(S(=O)(=O)N(CCO)Cc2cc3cc(OC)ccc3[nH]c2=O)c1 reads inconclusive: 29.1 µM [inhibitor, single point]

Next part:

Structure (SMILES) | Potency
O=C(CSc1nnc2scc(-c3ccccc3)n12)Nc1ccc2c(c1)OCCO2 | inconclusive: 18.4 µM [inhibitor, single point]
Cc1cccc(-c2nnc(SCC(=O)N3c4ccccc4CCc4ccccc43)n2C)c1 | inactive
COc1ccccc1[C@@]1(C)ON(c2ccccc2C(F)(F)F)C1=O | active: 18.3 µM
CNC(=O)c1ccc(-c2sc3nc(N4CCOCC4)c4c(c3c2N)CCCC4)o1 | inconclusive: 13 µM [inhibitor, partial curve]
CC(C)(C)c1cc(NC(=O)CCl)n(-c2ccccc2)n1 | inactive
Cc1ccccc1N=Nc1c(O)n(C)c2ccccc12 | inactive
O=C(Nc1ccc(Cl)cc1)Nc1ccc(Br)cn1 | inconclusive: 2.06 µM [activator, full curve]
O=C(CSc1nnc(-c2ccncc2)o1)Nc1cccc(F)c1 | inconclusive: 9.2 µM [activator, partial curve, poor fit]
Cc1nc(NC(=O)c2ccc3c(c2)OCCO3)ccc1Br | inconclusive: 1.83 µM [activator, partial curve]
CCCCCn1c(CN2CC(C)OC(C)C2)nc2c1c(=O)n(C)c(=O)n2C (stereo not given) | inactive
CCOc1cc(CNCC(C)C)cc(Cl)c1OCc1ccccc1 | inconclusive: 32.6 µM [inhibitor, partial curve, poor fit]
Cc1nn(C)c(Sc2ccccc2N)c1[N+](=O)[O-] | inconclusive: 20.6 µM [activator, single point]
Cc1nn2c(N3CCCC3)c3c(nc2c1-c1ccccc1)CCC3 | inconclusive: 29.1 µM [inhibitor, single point]
CCC1(CC)NC(=O)N(CC(=O)OCC(=O)c2cc(C)c(C)cc2C)C1=O | inactive
Cc1cccc(Oc2ccc(NC(=O)C3=CC=CN4CCS(=O)(=O)N=C34)cc2)c1 | inactive
Cc1ccc(C(=O)/C=C/c2ccco2)c(O)c1 | inconclusive: 29.1 µM [activator, single point]
COc1ccc(-n2nc(C(=O)NCC(=O)N3CCC(C)CC3)c3ccccc3c2=O)c(OC)c1 | inconclusive: 14.6 µM [activator, partial curve]
O=[N+]([O-])c1cc([N+](=O)[O-])c(Oc2ccc(F)cc2)cc1NN1CCCCC1 | inactive
Cc1ccc(OCC(=O)Nc2ccc(N3CCN(C(=O)c4ccc(C)cc4)CC3)cc2)cc1 | inconclusive: 32.6 µM [activator, partial curve, poor fit]
Cc1ccccc1N(CC(=O)NC1CCCC1)C(=O)c1oc(C(C)(C)C)cc1C | inactive
COc1ccc(NC(=O)C2CCN(C(=O)Nc3ccccc3)CC2)cc1S(=O)(=O)N(C)C | inconclusive: 5.8 µM [inhibitor, partial curve, poor fit]
CC(C)=CC[N+]1(C)CCCCC1 | inconclusive: 23.1 µM [activator, partial curve, poor fit]
Cc1ccc(NS(=O)(=O)c2cc(C(=O)NCCSC3CCCCC3)ccc2C)cc1 | inconclusive: 29.1 µM [inhibitor, single point]
CCCOc1ccc(N2C(=O)CC(SCCc3nc4ccccc4[nH]3)C2=O)cc1 (stereo not given) | inactive

Structure (SMILES) | Potency
COc1ccc(Oc2nc3c(c(=O)n(C)c(=O)n3C)n2Cc2ccccc2)cc1 | inactive
COc1ccc(-c2cc(C(F)F)n3ncc(C(=O)NCC4CCCO4)c3n2)cc1 (stereo not given) | active: 2.06 µM
COc1ccc(Cl)cc1S(=O)(=O)NC(C)C(=O)NCc1ccncc1 (stereo not given) | inactive
COc1cc(C(=O)COC(=O)c2ccncc2)cc(OC)c1OC | inconclusive: 20.6 µM [inhibitor, partial curve, poor fit]
c1ccc(-c2cn3nc(-c4ccccc4)cnc3n2)cc1 | inconclusive: 0.92 µM [activator, full curve]
c1ccc(CCn2nnnc2C(c2cccnc2)N2CCN(c3nc4ccccc4s3)CC2)cc1 (stereo not given) | inconclusive: 29.1 µM [inhibitor, single point]
COc1ccc(NC(=S)Nc2ccccc2SC)c(OC)c1 | inactive
Cc1ccc(Oc2nc(C(F)(F)F)nc3ccccc23)cc1 | inconclusive: 2.59 µM [activator, full curve, poor fit]
Cc1cccc(NC(=O)CSc2nc(C3CC3)nc3ccccc23)c1 | inconclusive: 20.6 µM [inhibitor, partial curve]
O=C(NCc1cccc(C(F)(F)F)c1)c1cccc(S(=O)(=O)NCc2ccccc2)c1 | inconclusive: 18.4 µM [inhibitor, single point]
CCOC(=O)CNNC(=O)Nc1ccc(Cl)c(Cl)c1 | inactive
O=C(Nc1ccc(N2C(=O)c3cccc4cccc(c34)C2=O)cc1)c1ccc(N2CCCCC2)c([N+](=O)[O-])c1 | inconclusive: 2.91 µM [inhibitor, partial curve]
C=CCN(Cc1cccs1)C(=O)COc1ccc2c(c1)OCO2 | inconclusive: 5.17 µM [activator, single point]
COCCn1c(C)cc(C(=O)COC(=O)CNC(=O)c2ccccc2)c1C | inconclusive: 20.6 µM [activator, single point]
O=C(CCCCCn1c(=O)[nH]c2ccccc2c1=O)NCCc1c[nH]c2ccccc12 | inconclusive: 35.5 µM [inhibitor, single point]
O=C(CSc1nc2ccccc2c(=O)n1-c1ccc(OC(F)F)cc1)NC1CC1 | inconclusive: 0.13 µM [inhibitor, single point]
CC(C)Cc1ccc(CN2CCCC(NC(=O)CCN3CCCO3)C2)cc1 (stereo not given) | inactive
CC(C)COc1ccc(C(=O)Nc2ncn[nH]2)cc1 | inconclusive: 14.6 µM [activator, partial curve]
CN(C)S(=O)(=O)c1ccc(C(=O)Nc2cccc(S(=O)(=O)NC3=NCCC3)c2)cc1 | inactive
CCc1c(C)nc2c(Br)cccc2c1SCCC#N | inactive
C[C@H](CO)N1C[C@H](C)[C@@H](CN(C)S(=O)(=O)c2cccs2)Oc2c(NC(=O)c3ccncc3)cccc2C1=O | inconclusive: 14.6 µM [activator, partial curve, poor fit]
O=C(Nc1ccccc1O)c1ccc(NS(=O)(=O)c2cccc3cccnc23)cc1 | inconclusive: 16.4 µM [activator, single point]

Part of the list above, as comma-separated lines.
Structure (SMILES),Potency
CN(CC(=O)Nc1ccc(Cl)c(C(F)(F)F)c1)C(=O)CCNC(=O)c1ccco1,inactive
CN(C(=O)CSc1nc2ccccc2c(=O)n1C)C1CCS(=O)(=O)C1 (stereo not given),inactive
Cc1ccc(Oc2nc(C(F)(F)F)nc3ccccc23)cc1,"inconclusive: 2.59 µM [activator, full curve, poor fit]"
